Measurements reported in PubChem BioAssay AID652243 (Drosophila RNAi Screening Center, 2013)
In all, the deposit lists about 24,000 reagents; below is a random part of those that have a named target and a result. Over the whole deposit, 246 (1%) got an active call. 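Plates not normalised; calls are printed but the firefly/Renilla ratio behind them is not deposited; fold cut for lowering reported inconsistently.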 Raw values are not corrected between plates. The numbers tell different reagents against one gene apart. Names joined by + are all predicted targets of the reagent. Reagent sequences are not shown. Not given: the amount of reagent.

- Test: 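Fly genes required for human androgen receptor driven transcription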 (primary screen)
- Cell system: Drosophila S2R+ cells
- Reagent: long dsRNA against Drosophila genes
- Timing: 72 h (48 h, then 24 h hormone)
- Challenge: synthetic androgen R1881 at 10 nM for 24 h
- Read-out: 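Per-well raw luminescence of the androgen-driven firefly reporter and of the Renilla control, two replicates each, without normalisation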
- Reading the numbers: firefly reporter light: higher = more light from androgen-responsive reporter; Renilla control light: higher = more constitutive control signal (cell number, transfection)
- Rule for the call: 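Hit when the log firefly-to-Renilla ratio dropped or increased by a fixed fold versus the mean of GFP or LacZ controls across duplicate plates; lowering cut given as 1.5 and as 3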
- Calls: active = hit: reporter lowered or raised; inactive = no hit

gene | reagent | firefly reporter light, replicate 1 | firefly reporter light, replicate 2 | Renilla control light, replicate 1 | Renilla control light, replicate 2 | outcome
Drgx (Dorsal root ganglia homeobox) | 1 | 1.30e5 | 94131 | 7.97e5 | 6.41e5 | inactive
Drgx (Dorsal root ganglia homeobox) | 2 | 89479 | 1.16e5 | 6.26e5 | 7.36e5 | inactive
Drgx (Dorsal root ganglia homeobox) | 3 | 3.81e5 | 3.45e5 | 1.74e6 | 1.66e6 | inactive
CG34459 | 1 | 79061 | 89859 | 1.64e6 | 1.64e6 | inactive
GABA-B-R1 (metabotropic GABA-B receptor subtype 1) | 1 | 8.51e5 | 6.94e5 | 2.00e6 | 1.29e6 | inactive
CG14086 | 1 | 2.88e5 | 2.80e5 | 2.00e6 | 2.92e6 | inactive
rogdi | 1 | 15717 | 22528 | 1.83e5 | 2.30e5 | inactive
ATPsynCF6 (ATP synthase, coupling factor 6) | 1 | 1.93e5 | 2.74e5 | 2.59e6 | 2.61e6 | inactive
ana2 (anastral spindle 2) | 1 | 5.28e5 | 8.26e5 | 1.36e6 | 1.46e6 | inactive
ana2 (anastral spindle 2) | 2 | 4.14e5 | 3.51e5 | 3.98e5 | 5.50e5 | inactive
Npc2f (Niemann-Pick type C-2f) | 1 | 1.33e5 | 1.30e5 | 7.27e5 | 8.23e5 | inactive
wun (wunen) | 1 | 1.20e6 | 1.26e6 | 2.90e6 | 2.01e6 | inactive
wun (wunen) | 2 | – | – | – | – | inactive
wun (wunen) | 3 | – | – | – | – | inactive
TwdlW (TweedleW) | 1 | 1.33e5 | 1.68e5 | 1.81e6 | 2.33e6 | inactive
TwdlW (TweedleW) | 2 | 7.84e5 | 8.59e5 | 1.14e6 | 1.11e6 | inactive
CG6220 | 1 | 81418 | 1.07e5 | 1.50e6 | 1.50e6 | inactive
CG10384 | 1 | 1.24e5 | 1.67e5 | 3.16e5 | 4.95e5 | inactive
CG10384 | 2 | 3.43e5 | 4.59e5 | 1.05e6 | 1.81e6 | inactive
msopa (male-specific opa containing gene) | 1 | 6.91e5 | 7.70e5 | 1.67e6 | 1.14e6 | inactive
CG34305 | 1 | 7.14e5 | 7.72e5 | 1.37e6 | 1.47e6 | inactive
eIF2gamma + Su(var)3-9 | 1 | 57367 | 92085 | 93513 | 2.33e5 | inactive
eIF2gamma + Su(var)3-9 | 2 | 1.05e5 | 74115 | 7.12e5 | 8.51e5 | inactive
eIF2gamma + Su(var)3-9 | 3 | 4.04e5 | 3.22e5 | 5.83e5 | 7.12e5 | inactive
CG15269 | 1 | 1.12e5 | 1.03e5 | 1.17e6 | 1.46e6 | inactive
CG15269 | 2 | 9.64e5 | 7.85e5 | 9.49e5 | 8.77e5 | inactive
Tmem131 (Transmembrane protein 131) | 1 | 1.55e6 | 1.10e6 | 2.01e6 | 1.26e6 | inactive
dsd (distracted) | 1 | 1.15e5 | 2.06e5 | 2.27e5 | 2.86e5 | inactive
dsd (distracted) | 2 | 88620 | 1.21e5 | 8.74e5 | 9.49e5 | inactive
CG6435 | 1 | 81099 | 78813 | 1.41e6 | 1.41e6 | inactive
CG13622 | 1 | 1.39e5 | 1.84e5 | 2.03e6 | 2.06e6 | inactive
CG13622 | 2 | 9.38e5 | 6.14e5 | 7.51e5 | 5.45e5 | inactive
CG8419 | 1 | 1.62e5 | 1.30e5 | 1.56e6 | 1.09e6 | inactive
dpn (deadpan) | 1 | 2.18e5 | 2.73e5 | 1.32e6 | 1.03e6 | inactive
dpn (deadpan) | 2 | 2.57e5 | 6.44e5 | 4.53e5 | 1.24e6 | inactive
Hip14 (Huntingtin-interacting protein 14) | 1 | 55561 | 26376 | 4.17e5 | 3.02e5 | inactive
Mettl14 (Methyltransferase like 14) | 1 | 6.77e5 | 9.28e5 | 1.54e6 | 1.30e6 | inactive
Pex14 (Peroxin 14) | 1 | 1.80e5 | 1.61e5 | 2.45e6 | 2.43e6 | inactive
Pex14 (Peroxin 14) | 2 | 3.02e5 | 4.84e5 | 7.96e5 | 1.59e6 | inactive
CG6912 | 1 | 1.05e5 | 1.19e5 | 2.29e6 | 1.55e6 | inactive
cv-c (crossveinless c) | 1 | 1.46e5 | 2.02e5 | 1.84e6 | 2.79e6 | inactive
cv-c (crossveinless c) | 2 | 2.30e5 | 1.66e5 | 2.48e6 | 3.22e6 | inactive
cv-c (crossveinless c) | 3 | 1.70e5 | 1.26e5 | 2.68e6 | 2.26e6 | inactive
cv-c (crossveinless c) | 4 | 4.00e5 | 5.27e5 | 2.60e6 | 3.28e6 | inactive
cv-c (crossveinless c) | 5 | 8.31e5 | 9.73e5 | 1.57e6 | 1.75e6 | inactive
cv-c (crossveinless c) | 6 | 6.56e5 | 9.24e5 | 8.63e5 | 9.33e5 | inactive
cv-c (crossveinless c) | 7 | 2.51e5 | 2.72e5 | 6.11e5 | 4.55e5 | inactive
cv-c (crossveinless c) | 8 | 5.33e5 | 3.28e5 | 8.90e5 | 5.58e5 | inactive
Galphaf (G protein alpha subunit f) | 1 | 1.76e5 | 1.14e5 | 1.07e6 | 1.22e6 | inactive
defl (deflated) | 1 | 9.99e5 | 8.45e5 | 1.37e6 | 1.48e6 | inactive
Gem2 (Gemin 2) | 1 | 13457 | 18888 | 3.22e5 | 2.16e5 | inactive
CG30398 | 1 | 99605 | 95426 | 2.92e5 | 2.21e5 | inactive
CG18171 | 1 | 36284 | 84560 | 7.94e5 | 8.72e5 | inactive
CG18171 | 2 | 2.62e5 | 3.82e5 | 2.86e5 | 5.22e5 | inactive
Kaz1-ORFB | 1 | 95003 | 2.02e5 | 9.07e5 | 1.04e6 | inactive
CG4440 | 1 | 1.07e5 | 51365 | 2.13e6 | 1.82e6 | inactive
CG4440 | 2 | 9.10e5 | 1.09e6 | 1.61e6 | 1.82e6 | inactive
TwdlZ (TweedleZ) | 1 | 6.63e5 | 6.88e5 | 5.82e5 | 3.75e5 | inactive
CG2983 | 1 | 9.12e5 | 7.72e5 | 2.12e6 | 1.31e6 | inactive
S-Lap5 (Sperm-Leucylaminopeptidase 5) | 1 | 65976 | 1.23e5 | 2.11e6 | 2.11e6 | inactive
S-Lap5 (Sperm-Leucylaminopeptidase 5) | 2 | 6.62e5 | 6.05e5 | 7.62e5 | 6.33e5 | inactive
tre-1 (retired record) | 1 | 1.10e6 | 6.84e5 | 2.31e6 | 2.06e6 | inactive
SecCl (Secretory chloride channel) | 1 | 1.94e5 | 1.42e5 | 2.29e6 | 8.46e5 | inactive
CG17834 | 1 | 8.22e5 | 9.99e5 | 2.01e6 | 1.76e6 | inactive
CG17834 | 2 | 4.01e5 | 4.50e5 | 4.19e5 | 4.39e5 | inactive
CG7183 | 1 | 1.17e5 | 71943 | 9.45e5 | 6.78e5 | inactive
CG3739 | 1 | 2.17e5 | 2.89e5 | 2.62e6 | 3.14e6 | inactive
CtsL2 (Cathepsin L2) | 1 | 9.95e5 | 7.69e5 | 2.64e6 | 2.00e6 | inactive
RNaseZ (Ribonuclease Z) | 1 | 3.33e5 | 2.12e5 | 1.75e6 | 1.45e6 | inactive
CG15498 | 1 | 3.98e5 | 3.74e5 | 4.34e6 | 4.91e6 | inactive
witty (without maturity) | 1 | 3.38e5 | 2.19e5 | 3.38e6 | 2.48e6 | inactive
witty (without maturity) | 2 | 6.97e5 | 7.49e5 | 1.03e6 | 8.82e5 | inactive
witty (without maturity) | 3 | 3.39e5 | 4.51e5 | 5.81e5 | 6.63e5 | inactive
Gycbeta100B (Guanylyl cyclase beta-subunit at 100B) | 1 | 9.00e5 | 5.66e5 | 1.33e6 | 5.14e5 | inactive
Gycbeta100B (Guanylyl cyclase beta-subunit at 100B) | 2 | 1.02e6 | 6.28e5 | 9.19e5 | 5.32e5 | inactive
Gycbeta100B (Guanylyl cyclase beta-subunit at 100B) | 3 | 1.30e5 | 1.57e5 | 1.44e6 | 9.73e5 | inactive
Gycbeta100B (Guanylyl cyclase beta-subunit at 100B) | 4 | 3.10e5 | 3.63e5 | 1.03e6 | 9.16e5 | inactive
